Data as given in patent US20110129481A1.
Results are given in words; binding and its absence hold for the method and conditions named. Some binding calls cover weakened binding; strength is not graded here.

By UniProt entry, the sequences of proteins in these tests, tags left out. Residues count along the entry.
UniProt P08581, residues 25-1390: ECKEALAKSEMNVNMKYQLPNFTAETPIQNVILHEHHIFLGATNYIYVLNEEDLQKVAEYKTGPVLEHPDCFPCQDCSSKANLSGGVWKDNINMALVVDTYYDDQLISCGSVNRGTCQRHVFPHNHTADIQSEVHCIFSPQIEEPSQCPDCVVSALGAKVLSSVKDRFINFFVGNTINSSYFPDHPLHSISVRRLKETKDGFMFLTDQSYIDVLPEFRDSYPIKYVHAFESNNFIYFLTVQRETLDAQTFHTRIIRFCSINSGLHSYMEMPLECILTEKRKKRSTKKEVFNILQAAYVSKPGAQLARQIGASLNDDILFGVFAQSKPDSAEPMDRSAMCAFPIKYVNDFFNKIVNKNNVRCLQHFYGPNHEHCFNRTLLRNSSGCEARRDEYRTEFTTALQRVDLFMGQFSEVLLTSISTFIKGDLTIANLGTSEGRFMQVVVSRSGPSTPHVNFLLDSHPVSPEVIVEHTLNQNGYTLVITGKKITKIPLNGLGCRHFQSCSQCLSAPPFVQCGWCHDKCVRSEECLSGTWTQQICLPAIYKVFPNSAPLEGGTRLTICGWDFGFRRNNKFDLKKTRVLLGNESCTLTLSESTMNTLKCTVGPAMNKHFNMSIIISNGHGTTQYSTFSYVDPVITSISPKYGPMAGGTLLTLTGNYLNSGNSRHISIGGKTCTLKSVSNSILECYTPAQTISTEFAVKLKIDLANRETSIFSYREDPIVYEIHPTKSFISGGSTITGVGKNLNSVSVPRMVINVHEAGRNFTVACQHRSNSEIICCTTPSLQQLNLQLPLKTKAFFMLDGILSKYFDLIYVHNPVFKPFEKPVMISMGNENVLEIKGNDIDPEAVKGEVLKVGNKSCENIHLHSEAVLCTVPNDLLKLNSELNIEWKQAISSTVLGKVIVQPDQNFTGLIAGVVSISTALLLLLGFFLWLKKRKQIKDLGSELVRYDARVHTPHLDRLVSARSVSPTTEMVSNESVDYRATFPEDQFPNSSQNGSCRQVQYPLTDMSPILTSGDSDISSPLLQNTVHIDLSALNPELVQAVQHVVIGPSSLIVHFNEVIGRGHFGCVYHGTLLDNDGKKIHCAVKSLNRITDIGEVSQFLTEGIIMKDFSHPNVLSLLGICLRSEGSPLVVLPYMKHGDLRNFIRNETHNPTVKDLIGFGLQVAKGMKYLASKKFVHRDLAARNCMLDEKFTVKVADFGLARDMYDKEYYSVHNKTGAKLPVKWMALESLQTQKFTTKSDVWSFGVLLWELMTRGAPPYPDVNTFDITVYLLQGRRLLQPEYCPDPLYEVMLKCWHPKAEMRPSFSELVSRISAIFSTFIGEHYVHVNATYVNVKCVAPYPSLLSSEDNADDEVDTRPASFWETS

What was measured:
[1] = biological target: c-Met in HEK293 cells with tetracycline-regulated expression of c-Met (UniProt P08581); experiment: immunoprecipitation from HEK293 cells (legend of FIG. 2)
[2] = biological target: c-Met in HEK293 cells with tetracycline-regulated expression of c-Met (UniProt P08581); experiment: immunohistochemistry on HEK293 cells with or without tetracycline
[3] = biological target: c-Met in HEK293 cells with tetracycline-regulated expression of c-Met (UniProt P08581); experiment: immunoprecipitation from HEK293 lysates, Western blot

Measured: binding

B1: monoclonal antibody AbF24 (antibody, V domains shown)
VH: QIQLVQSGPELKKPGETVKISCKASGYTFTDYSMHWVKQAPGKGLKWMGWINTETGAPTYADDFKGRFAFSLETSASTAYLQINNLKDEDTATYFCARASMISFVYWGQGTLV
VL: DIVMSQSPSSLAVSVGEKITMSCKSSQSLLYSSNQKNYLAWYQQKPGQSPKLLIYWASTRKSGVPDRFTGSGSGTDFTLTISSVKAEDLAVYYCQQYYDYPFTFGSGTK
binds: all assays above
